{
  "sequences": {"note": "Protein sequences, listed by entry. Tags and fused reporters are not part of them. Residues count along the entry.", "UniProt Q13224, 27-1484, species assumed": "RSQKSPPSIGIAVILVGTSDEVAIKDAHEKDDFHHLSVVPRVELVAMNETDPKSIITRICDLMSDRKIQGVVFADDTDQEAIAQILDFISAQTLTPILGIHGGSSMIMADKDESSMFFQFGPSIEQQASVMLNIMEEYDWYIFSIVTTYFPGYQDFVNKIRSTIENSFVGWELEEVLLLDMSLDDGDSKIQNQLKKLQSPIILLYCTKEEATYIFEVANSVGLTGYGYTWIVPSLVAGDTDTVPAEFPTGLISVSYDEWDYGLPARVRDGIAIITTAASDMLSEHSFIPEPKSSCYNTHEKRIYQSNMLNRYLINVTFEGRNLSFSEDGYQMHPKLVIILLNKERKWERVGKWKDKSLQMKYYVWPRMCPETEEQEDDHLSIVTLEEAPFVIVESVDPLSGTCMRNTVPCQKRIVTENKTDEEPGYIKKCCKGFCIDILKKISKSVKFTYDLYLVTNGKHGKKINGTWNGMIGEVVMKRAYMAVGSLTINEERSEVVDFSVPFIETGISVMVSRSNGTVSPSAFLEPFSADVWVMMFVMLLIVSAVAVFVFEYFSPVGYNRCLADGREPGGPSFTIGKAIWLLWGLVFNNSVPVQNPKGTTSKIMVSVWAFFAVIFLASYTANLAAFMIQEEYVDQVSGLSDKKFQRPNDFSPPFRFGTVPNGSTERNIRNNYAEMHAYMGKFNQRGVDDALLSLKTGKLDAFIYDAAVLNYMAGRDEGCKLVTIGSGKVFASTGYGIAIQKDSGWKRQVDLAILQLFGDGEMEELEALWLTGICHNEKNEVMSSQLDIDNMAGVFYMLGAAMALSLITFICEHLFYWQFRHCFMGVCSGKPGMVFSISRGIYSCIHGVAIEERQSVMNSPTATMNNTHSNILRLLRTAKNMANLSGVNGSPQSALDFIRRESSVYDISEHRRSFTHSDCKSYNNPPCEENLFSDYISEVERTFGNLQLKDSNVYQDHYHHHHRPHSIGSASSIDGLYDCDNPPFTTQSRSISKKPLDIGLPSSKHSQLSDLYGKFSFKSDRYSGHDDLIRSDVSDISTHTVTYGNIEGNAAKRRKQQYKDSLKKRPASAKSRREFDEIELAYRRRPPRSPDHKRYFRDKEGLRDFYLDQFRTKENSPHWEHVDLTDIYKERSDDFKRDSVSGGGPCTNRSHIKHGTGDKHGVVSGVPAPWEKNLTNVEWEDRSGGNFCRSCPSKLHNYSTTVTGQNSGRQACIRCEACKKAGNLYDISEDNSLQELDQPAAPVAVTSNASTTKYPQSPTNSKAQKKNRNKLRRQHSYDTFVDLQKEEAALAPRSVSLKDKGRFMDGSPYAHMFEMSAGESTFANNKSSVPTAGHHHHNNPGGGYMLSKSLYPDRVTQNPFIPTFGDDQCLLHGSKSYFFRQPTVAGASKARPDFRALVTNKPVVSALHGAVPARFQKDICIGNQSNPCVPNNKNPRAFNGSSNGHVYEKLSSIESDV"},
  "source": "patent US10294230B2",
  "about": "“3,3-difluoropiperidine carbamate heterocyclic compounds as NR2B NMDA receptor antagonists” (Rugen Holdings (Cayman) Limited, priority 2015, dated 2019)",
  "origin": "cited, not measured here",
  "biological_target": "NR2B (Homo sapiens (Human), UniProt Q05586+Q13224)",
  "conditions": "cited from earlier work",
  "note": "At least one structure is not confirmed: it was looked up by name or label, or the drawing left a doubt.",
  "data": [
    {"compound": "Cc1ccc(COC(=O)N2CC[C@H](CNc3ncccn3)[C@H](F)C2)cc1", "note": "[MK0657]", "values": [
      {"measurement": "potency against NR2B", "result": 13.8, "unit": "nM"}
    ]}
  ]
}
